{"source": "patent US4210749A", "about": "“Substituted 1,2,4,5-tetrahydro-3H,3 benzazepines” (priority 1979, dated 1980)", "key": {"in vivo [1]": {"assay": "in vivo", "conditions": "po"}, "in vivo [2]": {"assay": "in vivo"}}}
{"compound": "CN1CC[C@]23c4c5ccc(O)c4O[C@H]2[C@@H](O)C=C[C@H]3[C@H]1C5", "note": "[Morphine, reference compound]", "values": [{"measurement": "NOAEL", "setting": "in vivo [1]", "value": 56, "unit": "mg/kg"}, {"measurement": "LD50", "setting": "in vivo [2]; ip", "value": 250, "unit": "mg/kg"}, {"measurement": "LD50", "setting": "in vivo [2]; po", "value": "~800", "unit": "mg/kg"}]}
